Consider 1 molecule from article PMC12548433.

The test deals with T1, FLAG-tagged leader (L) protein of Theiler's murine encephalomyelitis virus (Theiler's murine encephalomyelitis virus) (UniProt P13899).
T1 sequence: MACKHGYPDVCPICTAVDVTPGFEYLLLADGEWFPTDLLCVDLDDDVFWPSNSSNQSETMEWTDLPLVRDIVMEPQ
Nature of the test: co-IP.

Results are given in words; binding and its absence hold for the method and conditions named. In cells and extracts the contact can be indirect. Tags and fused reporters may be left off the sequences shown.

B1: ribonucleic acid export 1 (RAE1) (protein, UniProt P78406 1-368)
chain: MSLFGTTSGFGTSGTSMFGSATTDNHNPMKDIEVTSSPDDSIGCLSFSPPTLPGNFLIAGSWANDVRCWEVQDSGQTIPKAQQMHTGPVLDVCWSDDGSKVFTASCDKTAKMWDLSSNQAIQIAQHDAPVKTIHWIKAPNYSCVMTGSWDKTLKFWDTRSSNPMMVLQLPERCYCADVIYPMAVVATAERGLIVYQLENQPSEFRRIESPLKHQHRCVAIFKDKQNKPTGFALGSIEGRVAIHYINPPNPAKDNFTFKCHRSNGTNTSAPQDIYAVNGIAFHPVHGTLATVGSDGRFSFWDKDARTKLKTSEQLDQPISACCFNHNGNIFAYASSYDWSKGHEFYNPQKKNYIFLRNAAEELKPRNKK
For B1, the binding result is “no binding”.
